Measured data: PubChem BioAssay AID1224830 (NIAID, 2016)

- Screen: 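Host factors that control LPS-induced TNF expression in human macrophages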 (primary screen)
- Cells: human THP-1 monocytic leukaemia cells, TNF dual-luciferase reporter clone, PMA-differentiated to macrophage-like cells
- Reagents: siRNA pool against human genes, 50 nM
- Duration: LPS for 4 h, given about 3 days after siRNA transfection
- Conditions: bacterial LPS (TLR4 ligand), 10 ng/ml
- Measured: 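Ratio of firefly to renilla light, scaled to the plate median and expressed as a robust z-score per replicate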
- Scale: TNF reporter robust z-score: higher = stronger TNF reporter response to LPS
- Hit rule: 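a well is active when its z-score exceeds 2.8 or falls below -1.5; control wells carry no call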
Shown is a random part of about 18,000 reagents. Over the whole deposit, about 2,900 (16%) are marked active. 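Calls are made per well; low scores hint the gene aids the LPS response, high scores that it dampens it.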 Unmarked entries are inactive. Repeated entries: four replicate wells of each siRNA pool. No sequences are given here.

Target gene | TNF reporter robust z-score
GOLGA5 (golgin A5) | -0.03
GOLGA5 (golgin A5) | 0.08
GOLGA5 (golgin A5) | 0.98
GOLGA5 (golgin A5) | 0.53
FAM234A (family with sequence similarity 234 member A) | 0.32
FAM234A (family with sequence similarity 234 member A) | 0.53
FAM234A (family with sequence similarity 234 member A) | 0.19
FAM234A (family with sequence similarity 234 member A) | -0.33
GRIA2 (glutamate ionotropic receptor AMPA type subunit 2) | 0.85
GRIA2 (glutamate ionotropic receptor AMPA type subunit 2) | 0.55
GRIA2 (glutamate ionotropic receptor AMPA type subunit 2) | -0.14
GRIA2 (glutamate ionotropic receptor AMPA type subunit 2) | 0.58
AGBL3 (AGBL carboxypeptidase 3) | -0.9
AGBL3 (AGBL carboxypeptidase 3) | 1.29
AGBL3 (AGBL carboxypeptidase 3) | 0.45
AGBL3 (AGBL carboxypeptidase 3) | 0.85
NPAS2 (neuronal PAS domain protein 2) | 1.2
NPAS2 (neuronal PAS domain protein 2) | 1.43
NPAS2 (neuronal PAS domain protein 2) | 0.78
NPAS2 (neuronal PAS domain protein 2) | -0.25
PARP15 (poly(ADP-ribose) polymerase family member 15) | -0.47
PARP15 (poly(ADP-ribose) polymerase family member 15) | -1.7 (active)
PARP15 (poly(ADP-ribose) polymerase family member 15) | -0.25
PARP15 (poly(ADP-ribose) polymerase family member 15) | 0.31
MOB3C (MOB kinase activator 3C) | 0.51
MOB3C (MOB kinase activator 3C) | 1.47
MOB3C (MOB kinase activator 3C) | 0.07
MOB3C (MOB kinase activator 3C) | 1.72
ZNF548 (zinc finger protein 548) | -1.03
ZNF548 (zinc finger protein 548) | -0.27
ZNF548 (zinc finger protein 548) | -0.55
ZNF548 (zinc finger protein 548) | -0.68
WASL (WASP like actin nucleation promoting factor) | 1.96
WASL (WASP like actin nucleation promoting factor) | 0.92
WASL (WASP like actin nucleation promoting factor) | -0.46
WASL (WASP like actin nucleation promoting factor) | -0.63
CYP26A1 (cytochrome P450 family 26 subfamily A member 1) | 2.48
CYP26A1 (cytochrome P450 family 26 subfamily A member 1) | 2.85 (active)
CYP26A1 (cytochrome P450 family 26 subfamily A member 1) | 2.46
CYP26A1 (cytochrome P450 family 26 subfamily A member 1) | 1.92
FAM161A (FAM161 centrosomal protein A) | -0.2
FAM161A (FAM161 centrosomal protein A) | 0.67
FAM161A (FAM161 centrosomal protein A) | 0
FAM161A (FAM161 centrosomal protein A) | 0.12
MESD (mesoderm development LRP chaperone) | 0.6
MESD (mesoderm development LRP chaperone) | -0.33
MESD (mesoderm development LRP chaperone) | 1.71
MESD (mesoderm development LRP chaperone) | 1.47
ABCC1 | 2.07
ABCC1 | 0.68
ABCC1 | 2.1
ABCC1 | 3.54 (active)
FAM114A2 (family with sequence similarity 114 member A2) | -0.08
FAM114A2 (family with sequence similarity 114 member A2) | 1.06
FAM114A2 (family with sequence similarity 114 member A2) | 0.8
FAM114A2 (family with sequence similarity 114 member A2) | 1.78
HCG9 (HLA complex group 9) | 2.47
HCG9 (HLA complex group 9) | 1.28
HCG9 (HLA complex group 9) | 5.91 (active)
HCG9 (HLA complex group 9) | 2.66
LAYN (layilin) | -0.59
LAYN (layilin) | -0.01
LAYN (layilin) | -1.18
LAYN (layilin) | 0.15
PLXNC1 (plexin C1) | 2.63
PLXNC1 (plexin C1) | 2.99 (active)
PLXNC1 (plexin C1) | 0.79
PLXNC1 (plexin C1) | 1.75
RGPD2 (RANBP2 like and GRIP domain containing 2) | -1.18
RGPD2 (RANBP2 like and GRIP domain containing 2) | -0.67
RGPD2 (RANBP2 like and GRIP domain containing 2) | -0.97
RGPD2 (RANBP2 like and GRIP domain containing 2) | -0.21
RRP12 (ribosomal RNA processing 12 homolog) | -0.32
RRP12 (ribosomal RNA processing 12 homolog) | 0.74
RRP12 (ribosomal RNA processing 12 homolog) | -0.6
RRP12 (ribosomal RNA processing 12 homolog) | -0.01
NRIP3 (nuclear receptor interacting protein 3) | -0.7
NRIP3 (nuclear receptor interacting protein 3) | -0.08
NRIP3 (nuclear receptor interacting protein 3) | 0.12
NRIP3 (nuclear receptor interacting protein 3) | 0.37
XAGE2 (X antigen family member 2) | -0.6
XAGE2 (X antigen family member 2) | -0.97
XAGE2 (X antigen family member 2) | -0.04
XAGE2 (X antigen family member 2) | -0.8
MME (membrane metalloendopeptidase) | -0.3
MME (membrane metalloendopeptidase) | -1.08
MME (membrane metalloendopeptidase) | -1.2
MME (membrane metalloendopeptidase) | -0.71
ARG2 (arginase 2) | 1.01
ARG2 (arginase 2) | -0.06
ARG2 (arginase 2) | 1.4
ARG2 (arginase 2) | 0.14
OR2J3 (olfactory receptor family 2 subfamily J member 3) | 0.83
OR2J3 (olfactory receptor family 2 subfamily J member 3) | 2.13
OR2J3 (olfactory receptor family 2 subfamily J member 3) | -1.16
OR2J3 (olfactory receptor family 2 subfamily J member 3) | -0.32
STEAP4 (STEAP4 metalloreductase) | -0.12
STEAP4 (STEAP4 metalloreductase) | 0.36
STEAP4 (STEAP4 metalloreductase) | -0.04
STEAP4 (STEAP4 metalloreductase) | 0.73
KMT2A (lysine methyltransferase 2A) | 3.12 (active)
KMT2A (lysine methyltransferase 2A) | 0.71
KMT2A (lysine methyltransferase 2A) | -0.8
KMT2A (lysine methyltransferase 2A) | 4.31 (active)
LTBP3 (latent transforming growth factor beta binding protein 3) | 0.3
LTBP3 (latent transforming growth factor beta binding protein 3) | -1.11
LTBP3 (latent transforming growth factor beta binding protein 3) | -0.97
LTBP3 (latent transforming growth factor beta binding protein 3) | 0.65
MEGF10 (multiple EGF like domains 10) | -0.6
MEGF10 (multiple EGF like domains 10) | -0.34
MEGF10 (multiple EGF like domains 10) | 0.29
MEGF10 (multiple EGF like domains 10) | -0.52

Laid out differently: results already given
{"Target gene": "OR2J3 (olfactory receptor family 2 subfamily J member 3)", "TNF reporter robust z-score": 2.13}
{"Target gene": "OR2J3 (olfactory receptor family 2 subfamily J member 3)", "TNF reporter robust z-score": -1.16}
{"Target gene": "OR2J3 (olfactory receptor family 2 subfamily J member 3)", "TNF reporter robust z-score": -0.32}
{"Target gene": "STEAP4 (STEAP4 metalloreductase)", "TNF reporter robust z-score": -0.12}
{"Target gene": "STEAP4 (STEAP4 metalloreductase)", "TNF reporter robust z-score": 0.36}
{"Target gene": "STEAP4 (STEAP4 metalloreductase)", "TNF reporter robust z-score": -0.04}
{"Target gene": "STEAP4 (STEAP4 metalloreductase)", "TNF reporter robust z-score": 0.73}
{"Target gene": "KMT2A (lysine methyltransferase 2A)", "TNF reporter robust z-score": "3.12 (active)"}
{"Target gene": "KMT2A (lysine methyltransferase 2A)", "TNF reporter robust z-score": 0.71}
